In PMC8901749:
These are yes or no findings as the source states them, for the method shown. In cells and extracts the contact can be indirect. Some binding calls cover weakened binding; strength is not graded here.

Amino acid sequences for entries named in this document (tags omitted).
UniProt Q921E6: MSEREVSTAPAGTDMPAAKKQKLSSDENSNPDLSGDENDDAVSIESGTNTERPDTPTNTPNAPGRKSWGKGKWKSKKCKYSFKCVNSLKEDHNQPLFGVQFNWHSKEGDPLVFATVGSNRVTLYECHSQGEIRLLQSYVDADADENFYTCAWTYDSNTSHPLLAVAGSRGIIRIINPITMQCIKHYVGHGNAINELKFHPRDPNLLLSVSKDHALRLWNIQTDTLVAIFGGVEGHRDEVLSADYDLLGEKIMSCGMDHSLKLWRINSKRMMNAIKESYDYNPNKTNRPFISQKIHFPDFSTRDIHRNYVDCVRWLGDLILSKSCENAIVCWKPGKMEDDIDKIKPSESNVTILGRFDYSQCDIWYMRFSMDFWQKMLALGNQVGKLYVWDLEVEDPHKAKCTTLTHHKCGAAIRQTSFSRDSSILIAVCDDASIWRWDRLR
UniProt Q61188: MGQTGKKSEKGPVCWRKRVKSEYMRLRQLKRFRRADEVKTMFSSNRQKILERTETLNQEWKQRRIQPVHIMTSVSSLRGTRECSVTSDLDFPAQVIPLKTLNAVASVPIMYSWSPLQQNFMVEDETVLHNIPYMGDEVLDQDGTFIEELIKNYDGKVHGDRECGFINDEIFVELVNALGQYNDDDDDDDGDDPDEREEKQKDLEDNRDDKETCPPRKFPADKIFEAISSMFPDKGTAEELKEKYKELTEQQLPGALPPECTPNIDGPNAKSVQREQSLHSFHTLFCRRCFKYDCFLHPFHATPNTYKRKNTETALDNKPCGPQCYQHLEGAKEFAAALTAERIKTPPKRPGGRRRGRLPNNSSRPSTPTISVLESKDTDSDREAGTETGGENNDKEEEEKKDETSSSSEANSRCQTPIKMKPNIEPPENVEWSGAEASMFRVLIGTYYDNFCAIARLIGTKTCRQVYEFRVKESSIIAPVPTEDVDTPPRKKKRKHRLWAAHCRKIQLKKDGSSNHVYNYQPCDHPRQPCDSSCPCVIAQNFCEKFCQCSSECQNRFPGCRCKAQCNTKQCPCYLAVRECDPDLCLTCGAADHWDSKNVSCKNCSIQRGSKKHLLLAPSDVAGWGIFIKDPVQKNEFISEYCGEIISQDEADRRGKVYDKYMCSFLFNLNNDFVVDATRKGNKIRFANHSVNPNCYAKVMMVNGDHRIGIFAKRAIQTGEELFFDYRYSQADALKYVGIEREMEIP
UniProt Q80U70: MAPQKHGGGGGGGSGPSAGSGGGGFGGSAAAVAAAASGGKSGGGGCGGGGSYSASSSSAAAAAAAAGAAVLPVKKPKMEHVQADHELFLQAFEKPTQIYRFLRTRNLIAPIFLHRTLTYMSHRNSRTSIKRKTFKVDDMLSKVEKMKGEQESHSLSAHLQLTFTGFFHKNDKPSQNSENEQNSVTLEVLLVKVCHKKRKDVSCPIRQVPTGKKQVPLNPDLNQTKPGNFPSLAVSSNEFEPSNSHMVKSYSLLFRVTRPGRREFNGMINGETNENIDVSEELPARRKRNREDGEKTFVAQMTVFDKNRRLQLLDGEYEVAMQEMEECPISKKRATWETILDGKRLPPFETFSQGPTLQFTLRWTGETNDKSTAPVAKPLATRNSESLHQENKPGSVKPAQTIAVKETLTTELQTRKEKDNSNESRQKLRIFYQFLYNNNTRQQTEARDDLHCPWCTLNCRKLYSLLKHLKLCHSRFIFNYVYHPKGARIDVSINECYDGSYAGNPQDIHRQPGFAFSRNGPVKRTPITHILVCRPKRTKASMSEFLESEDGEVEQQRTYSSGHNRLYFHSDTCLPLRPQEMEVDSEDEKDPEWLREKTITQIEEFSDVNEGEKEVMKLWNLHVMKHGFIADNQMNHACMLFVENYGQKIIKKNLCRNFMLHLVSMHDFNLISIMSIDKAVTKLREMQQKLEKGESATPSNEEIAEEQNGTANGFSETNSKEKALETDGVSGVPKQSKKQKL

Molecular target: EED (mouse (endogenous in SCIET27)) (UniProt Q921E6)
Assay: co-IP; endogenous proteins in SCIET27 lysate (50 mM HEPES pH 7.6, 75 mM NaCl, 1 mM MgCl2, 1 mM EGTA, 1 mM EDTA, 1% NP-40); antibody to EED, EZH2 or α-tubulin or control IgG overnight at 4 °C, Dynabeads protein A; detection by western blot

EZH2 (from UniProt Q61188 1-746)
binding: binds

Suz12 (from UniProt Q80U70 1-741)
binding: binds
